Experimental data as given in PubChem BioAssay AID488789 (Broad Institute, 2010).
The shares of active, inactive and inconclusive entries below differ from those in the screen. Active and inactive are the calls of the source.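 How the source made its calls: active means samples whose fitted half-maximal inhibition concentration is no more than ten times the top valid dose tested; inconclusive means flat response between -70 and -30, or invalid curve fit; inactive means flat within 30 of zero, potency above limit, or signal rising.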

Amino acid sequences for entries named in this document (tags omitted).
UniProt P00761, whole entry, looked up: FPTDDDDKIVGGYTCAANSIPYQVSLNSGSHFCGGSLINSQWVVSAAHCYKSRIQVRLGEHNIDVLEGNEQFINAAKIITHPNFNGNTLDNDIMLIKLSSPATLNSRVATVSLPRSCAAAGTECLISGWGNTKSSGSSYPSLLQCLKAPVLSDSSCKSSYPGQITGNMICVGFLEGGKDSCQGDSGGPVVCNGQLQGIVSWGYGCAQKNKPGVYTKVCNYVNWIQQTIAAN

Target: Trypsin (Sus scrofa) (UniProt P00761)
Experiment: porcine trypsin inhibitors, dose response, selectivity assay for Rce1 protease inhibitor project, biochemical, quenched peptide fluorescence, cherry-pick (AID 488789)
Settings: quenched peptide cleavage fluorescence; at 10 µM (top of the series)

SMILES	activity change, negative = inhibition
COc1ccc(CCN(C)C(=O)c2ccc(S(=O)(=O)Nc3ccccc3C)cc2)cc1OC	inactive: 9.33%
CC(C)CC(=O)Nc1ccc2oc(-c3cccnc3)nc2c1	inactive: 44.1%
Nc1cccc2nc3ccccc3cc12	inconclusive: -7.09%
COc1cccc(CNc2nc3nc(C)cc(C)n3n2)c1	inactive: -0.687%
N=c1c(C(=O)NCc2ccc(F)cc2)cc2c(=O)n3ccccc3nc2n1Cc1cccnc1	inactive: 37.3%
Nc1nnc(-c2ccncc2)s1	inconclusive: -4.06%
O=C(O/N=C\c1ccc(N2CCCCC2)c([N+](=O)[O-])c1)c1cccc(C(F)(F)F)c1	inactive: -2.32%
COc1cc2c(cc1OC)C(C)=NC1(CCCCC1)C2	inactive: -10.1%
Clc1cccc(CN2CCc3c([nH]c4ccccc34)C2)c1Cl	inconclusive: -2.11%
O=C(Nc1ccc(Cl)c([N+](=O)[O-])c1)C(Sc1ccccc1)c1ccccc1 (stereo unspecified)	inconclusive: -1.37%
CCCCCCSc1cc(-c2nc3cc(C)ccn3c2NCCCC)ccc1OC	inconclusive: 9.06%
CCCOc1ccc(-c2nc3c(c(=O)[nH]c(=O)n3Cc3ccccc3)n2CCO)cc1OCC	inconclusive: -30.1%
O=c1c(-c2ccccc2)coc2c(CN3CCCC3)c(O)ccc12	inconclusive: -21.4%
C[C@H]1COc2c(N3CCN(C)CC3)c(F)cc3c(=O)c(C(=O)O)cn1c23	inconclusive: -20.2%
CCCCN(CC)CCNC(=O)c1cc2c(-c3ccc(Cl)cc3)nn(C)c2s1	inactive: 66.6%
CN(C)CCNc1ncnc2oc(-c3ccccc3)c(-c3ccccc3)c12	inconclusive: 44.9%

Copied from the list:
For activity change, negative = inhibition, Clc1cccc(CN2CCc3c([nH]c4ccccc34)C2)c1Cl is listed with inconclusive: -2.11%
For activity change, negative = inhibition, COc1ccc(CCN(C)C(=O)c2ccc(S(=O)(=O)Nc3ccccc3C)cc2)cc1OC is listed with inactive: 9.33%

Further results

SMILES	activity change, negative = inhibition
Fc1cccc(-c2cc3nc(-c4ccccc4)cc(N4CCC5(CC4)OCCO5)n3n2)c1	inconclusive: -176%
CCCCn1c(=O)c(-c2ccccc2)c(O)c2ccccc21	inconclusive: -77.9%
COc1ccc(OC)c(/C=N/NC(=O)Cn2ccnc2C)c1	inconclusive: 5.64%
CSc1nc(NCC(C)O)c2c3c(sc2n1)CN(C)CC3 (stereo unspecified)	inconclusive: -14.8%
COC(=O)c1ccc(-c2ccc(CNCC(O)c3ccccc3)o2)cc1 (stereo unspecified)	inconclusive: -0.459%
Cc1ccc2nc3c(c(N)c2c1)CCN3C	inconclusive: 19.1%
O=C(CC1(O)C(=O)N(C/C=C/c2ccccc2)c2ccccc21)c1ccccn1 (stereo unspecified)	inactive: 5.45%
COc1ccccc1N1CCN(c2ncc(C(=O)N3CCN(c4cccc(Cl)c4)CC3)c3ccccc23)CC1	inconclusive: -0.299%
Cc1ccc(N=Cc2c(O)n(C)c(=O)n(C)c2=O)nc1	inconclusive: 6.97%
O=C(COC(=O)/C=C/c1cn(-c2ccccc2)nc1-c1ccc2c(c1)OCCO2)NC1CCS(=O)(=O)C1 (stereo unspecified)	inconclusive: -25.4%
CC(=O)c1c(C)oc2ccc(NS(=O)(=O)c3ccc(C(=O)O)cc3)cc12	inactive: 24%
Cc1ccc(-c2cc(C)nc3nc(N)nn23)cc1	inconclusive: 2.13%
COc1ccc2cc(C(=O)C3CCCN(C(=O)c4cc(=O)n(C)c(=O)n4C)C3)ccc2c1 (stereo unspecified)	inactive: -7.43%
CCOC(=O)c1cc(C)[nH]c(=O)c1C#N	inconclusive: -11.9%
COc1cc(NC(=O)C/C(C)=N/NC(=O)c2cccc(O)c2)c(OC)cc1Cl	inconclusive: -4.96%
